This passage reports binding results from PMC4521181.

Protein sequences, listed by entry. Tags and fused reporters are not part of them. Lines headed by an entry give the natural chain unless they say otherwise; changes in a name come on top.
UniProt P50750: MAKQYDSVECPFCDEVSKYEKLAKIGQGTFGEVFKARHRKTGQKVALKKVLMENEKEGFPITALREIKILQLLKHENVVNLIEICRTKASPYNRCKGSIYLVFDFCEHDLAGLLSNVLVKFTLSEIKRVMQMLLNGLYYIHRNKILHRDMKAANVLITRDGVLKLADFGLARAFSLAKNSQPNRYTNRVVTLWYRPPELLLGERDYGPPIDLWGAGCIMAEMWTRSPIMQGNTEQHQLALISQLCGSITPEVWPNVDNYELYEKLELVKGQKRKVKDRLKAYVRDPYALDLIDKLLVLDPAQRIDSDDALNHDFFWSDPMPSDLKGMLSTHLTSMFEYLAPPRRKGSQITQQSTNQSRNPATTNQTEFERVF

In experiment [1] the target is T1, AFF3-Flag (human) (UniProt P51826).
T1 sequence: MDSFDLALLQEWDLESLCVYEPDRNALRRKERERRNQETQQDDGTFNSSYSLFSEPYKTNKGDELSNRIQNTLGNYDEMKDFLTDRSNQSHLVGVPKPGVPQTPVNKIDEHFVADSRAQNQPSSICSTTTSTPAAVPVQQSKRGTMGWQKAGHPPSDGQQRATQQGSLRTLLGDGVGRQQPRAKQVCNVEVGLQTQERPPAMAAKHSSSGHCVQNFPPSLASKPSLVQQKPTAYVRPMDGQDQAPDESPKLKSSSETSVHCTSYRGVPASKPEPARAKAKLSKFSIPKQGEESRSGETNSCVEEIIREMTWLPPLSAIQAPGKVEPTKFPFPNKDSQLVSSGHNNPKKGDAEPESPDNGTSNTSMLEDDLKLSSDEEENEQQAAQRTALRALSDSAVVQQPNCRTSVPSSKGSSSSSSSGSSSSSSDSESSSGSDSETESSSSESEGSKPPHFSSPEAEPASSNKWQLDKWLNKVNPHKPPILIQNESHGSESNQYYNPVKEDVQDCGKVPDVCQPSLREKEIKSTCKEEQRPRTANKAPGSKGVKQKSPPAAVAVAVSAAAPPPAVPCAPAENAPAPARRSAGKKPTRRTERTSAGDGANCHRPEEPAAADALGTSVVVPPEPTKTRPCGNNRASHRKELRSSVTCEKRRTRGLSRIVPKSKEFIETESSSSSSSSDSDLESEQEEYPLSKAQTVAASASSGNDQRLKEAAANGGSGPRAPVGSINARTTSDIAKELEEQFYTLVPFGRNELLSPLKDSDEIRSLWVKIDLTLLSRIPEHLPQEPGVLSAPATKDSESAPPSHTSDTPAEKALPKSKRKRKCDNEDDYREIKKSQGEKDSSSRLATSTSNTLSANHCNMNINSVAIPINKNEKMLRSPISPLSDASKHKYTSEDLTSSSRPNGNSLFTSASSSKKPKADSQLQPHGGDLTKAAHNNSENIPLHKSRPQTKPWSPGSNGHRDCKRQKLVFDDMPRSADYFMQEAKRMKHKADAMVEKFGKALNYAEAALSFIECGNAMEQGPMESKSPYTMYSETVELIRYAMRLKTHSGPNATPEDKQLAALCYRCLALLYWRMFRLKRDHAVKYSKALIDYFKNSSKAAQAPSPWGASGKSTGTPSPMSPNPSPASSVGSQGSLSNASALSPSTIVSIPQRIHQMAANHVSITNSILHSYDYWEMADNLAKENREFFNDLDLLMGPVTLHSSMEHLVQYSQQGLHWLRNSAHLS
Nature of the experiment: co-IP; nuclear extract (150 mM NaCl, 1% NP40) of H295R cells overexpressing AFF3-Flag or Ctr vector; anti-Flag M2 affinity gel overnight at 4 °C, three washes, elution with 3X Flag peptide; western blot.

Experiment [2] has as its target CDK9 (human (endogenous in H295R)) (UniProt P50750). Nature of the experiment: co-IP; lysate of H295R cells overexpressing AFF3-Flag or silenced for AFF3 (siAFF3); anti-CDK9 antibodies and protein A magnetic sepharose beads overnight at 4 °C, three washes (150 mM NaCl, 1% NP40); western blot.

Results are given in words; binding and its absence hold for the method and conditions named. In cells and extracts the contact can be indirect. Some binding calls cover weakened binding; strength is not graded here. Sequences can lack the tags named with a protein.

Consider CDK9 (from UniProt P50750 1-372), for which the binding result in experiment [1] was “binds”.

B1: AFF3-Flag (protein, UniProt P51826 1-1226)
chain: T1 sequence
Regarding B1, in experiment [2], the binding entry is “binds”.

B2: AFF3 (endogenous) (protein, UniProt P51826-1 1-1226)
chain: T1 sequence
On to B2, for which the binding result in experiment [2] is recorded as “binds”.
